Results taken from patent US20080255052A1, “Immunologic regulation by theta defensins” (priority 2004, published 2008).
Some results were stated once for a whole list of compounds, not compound by compound.

Tested on: Staphylococcus aureus
Test: Staphylocidal activity in buffers containing physiologic NaCl
Assay type: cell-based
Conditions: in the presence of salts (FIG. 9)
Procedure: The microbicidal activities of various theta defensin peptides were determined by incubating 2×10^6 CFU/ml with peptides (0-100 μg/ml) in 50 μl of low salt diluents: 10 mM PIPES buffer containing 5 mM glucose, pH 7.4, 10 mM Tris-HCl, pH 7.4, or 10 mM sodium phosphate, pH 7.4, or the same diluents supplemented with 25 to 154 mM NaCl. After 2 h incubation at 37° C., the cell suspensions were diluted 1:50 with 10 mM sodium phosphate buffer, pH 7.4, and exponentially spread with an Autoplate 400 (Spiral Biotech, MD) onto trypticase soy agar (bacteria) or Sabouraud dextrose agar (fungi). After incubation at 37° C. for 18-48 h, colonies were counted and cell survival was expressed as CFU/ml.
Staphylocidal activities of theta defensins and protegrin were assayed in various buffers and salt concentrations. Log-phase bacteria were incubated for 2 h at 37° C. with increasing concentrations of the peptides (FIG. 9). Cells were incubated with increasing concentrations of RTD-1 (filled circles), RTD-2 (filled triangles), RTD-3 (filled squares), and PG-1 (filled diamonds) in 10 mM PIPES (FIG. 9A), 10 mM Tris-Cl (FIG. 9B), or 10 mM sodium phosphate (FIG. 9C), at pH 7.4, containing 154 mM NaCl.

Substance	microbicidal activity against Staphylococcus aureus [%]
RTD-3: naturally occurring theta defensin, homodimer of nine-residue sequences (SEQ ID NO:6, FIG. 1) (GVCRCLCRRGVCRCLCRR; homodimer, cyclic; listed as Macaca mulatta)	> 99
RTD-2: naturally occurring theta defensin, homodimer of nine-residue sequences (SEQ ID NO:4, FIG. 1) (GFCRCICTRGFCRCICTR; homodimer, cyclic; listed as Macaca mulatta)	> 99
